{"source": "PubChem BioAssay AID1224826 (NIAID, 2016)", "test": "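Genes that change LPS-induced Tnf promoter activity in mouse macrophages when knocked down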 (primary screen)", "cells": "RAW264.7 G9 macrophages from mouse bearing reporters for p65 (GFP) and the Tnf promoter (mCherry)", "knock-down reagent": "siRNA pool against mouse genes, 100 nM", "timing": "16 h of LPS stimulation, after 2 days of siRNA transfection", "challenge": "bacterial lipopolysaccharide (Salmonella minnesota R595), 10 ng/ml", "read-out": "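Imaged Tnf reporter mCherry in nuclei, minus background, normalised per plate to the median and expressed as robust z-scores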", "direction": "Tnf reporter robust z-score: higher = stronger Tnf promoter reporter signal after LPS", "hit rule": "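a well counts as active at a score of -1.3 or below (Tlr4 knock-down control median) or above 3 (raised signal); controls and wells holding fewer than 50 cells are excluded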", "meaning of the calls": "active = Tnf reporter clearly lowered or raised; inactive = no clear change in Tnf reporter", "note": "In all, the deposit lists about 17,000 reagents; this is an unselected part. About 1,110 of all reagents (6.6%) count as active. 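Active means lowered or raised reporter signal; replicate intensities are raw and not normalised per plate.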 Entries without a mark were called inactive. Not all columns of the deposit are shown."}
{"Gene": "Yes1 (GeneID 22612)", "Tnf reporter robust z-score": 1.12, "fewer than 50 cells in well": "enough cells in well"}
{"Gene": "Dus4l (GeneID 71916)", "Tnf reporter robust z-score": -0.24, "fewer than 50 cells in well": "enough cells in well"}
{"Gene": "Sh2d2a (GeneID 27371)", "Tnf reporter robust z-score": 0.82, "fewer than 50 cells in well": "enough cells in well"}
{"Gene": "Ythdf2 (GeneID 213541)", "Tnf reporter robust z-score": "-1.57 (active)", "fewer than 50 cells in well": "enough cells in well"}
{"Gene": "Srrm1 (GeneID 51796)", "Tnf reporter robust z-score": -1.16, "fewer than 50 cells in well": "enough cells in well"}
{"Gene": "Phf11a (GeneID 219131)", "Tnf reporter robust z-score": 0.97, "fewer than 50 cells in well": "enough cells in well"}
{"Gene": "Lama3 (GeneID 16774)", "Tnf reporter robust z-score": -0.53, "fewer than 50 cells in well": "enough cells in well"}
{"Gene": "Mc5r (GeneID 17203)", "Tnf reporter robust z-score": 0.63, "fewer than 50 cells in well": "enough cells in well"}
{"Gene": "Birc6 (GeneID 12211)", "Tnf reporter robust z-score": -0.26, "fewer than 50 cells in well": "enough cells in well"}
{"Gene": "Fundc2 (GeneID 67391)", "fewer than 50 cells in well": "fewer than 50 cells per well; well left out of calls"}
{"Gene": "Zfp160 (GeneID 224585)", "Tnf reporter robust z-score": -0.49, "fewer than 50 cells in well": "enough cells in well"}
{"Gene": "Zfp94 (GeneID 22756)", "Tnf reporter robust z-score": "-1.95 (active)", "fewer than 50 cells in well": "enough cells in well"}
{"Gene": "Or9k2b (GeneID 258671)", "Tnf reporter robust z-score": "3.83 (active)", "fewer than 50 cells in well": "enough cells in well"}
{"Gene": "Gpr33 (GeneID 14762)", "Tnf reporter robust z-score": 0.79, "fewer than 50 cells in well": "enough cells in well"}
{"Gene": "Ndufa10 (GeneID 67273)", "Tnf reporter robust z-score": -1.28, "fewer than 50 cells in well": "enough cells in well"}
{"Gene": "Cts8 (GeneID 56094)", "Tnf reporter robust z-score": -0.73, "fewer than 50 cells in well": "enough cells in well"}
{"Gene": "Ppp6r2 (GeneID 71474)", "Tnf reporter robust z-score": 0.29, "fewer than 50 cells in well": "enough cells in well"}
{"Gene": "Tpt1 (GeneID 22070)", "fewer than 50 cells in well": "fewer than 50 cells per well; well left out of calls"}
{"Gene": "Wnt4 (GeneID 22417)", "Tnf reporter robust z-score": -0.09, "fewer than 50 cells in well": "enough cells in well"}
{"Gene": "Vars1 (GeneID 22321)", "Tnf reporter robust z-score": 2.25, "fewer than 50 cells in well": "enough cells in well"}
{"Gene": "Cetn3 (GeneID 12626)", "Tnf reporter robust z-score": "-1.41 (active)", "fewer than 50 cells in well": "enough cells in well"}
